Assay results as given in paper PMC4598746.
Results are given in words; binding and its absence hold for the method and conditions named. In cells and extracts the contact can be indirect. Some binding calls cover weakened binding; strength is not graded here.

By UniProt entry, the sequences of proteins in these tests, tags left out. Where a name states a change or a piece, a line headed by the entry shows the natural chain unless it says otherwise.
UniProt Q8IYI6: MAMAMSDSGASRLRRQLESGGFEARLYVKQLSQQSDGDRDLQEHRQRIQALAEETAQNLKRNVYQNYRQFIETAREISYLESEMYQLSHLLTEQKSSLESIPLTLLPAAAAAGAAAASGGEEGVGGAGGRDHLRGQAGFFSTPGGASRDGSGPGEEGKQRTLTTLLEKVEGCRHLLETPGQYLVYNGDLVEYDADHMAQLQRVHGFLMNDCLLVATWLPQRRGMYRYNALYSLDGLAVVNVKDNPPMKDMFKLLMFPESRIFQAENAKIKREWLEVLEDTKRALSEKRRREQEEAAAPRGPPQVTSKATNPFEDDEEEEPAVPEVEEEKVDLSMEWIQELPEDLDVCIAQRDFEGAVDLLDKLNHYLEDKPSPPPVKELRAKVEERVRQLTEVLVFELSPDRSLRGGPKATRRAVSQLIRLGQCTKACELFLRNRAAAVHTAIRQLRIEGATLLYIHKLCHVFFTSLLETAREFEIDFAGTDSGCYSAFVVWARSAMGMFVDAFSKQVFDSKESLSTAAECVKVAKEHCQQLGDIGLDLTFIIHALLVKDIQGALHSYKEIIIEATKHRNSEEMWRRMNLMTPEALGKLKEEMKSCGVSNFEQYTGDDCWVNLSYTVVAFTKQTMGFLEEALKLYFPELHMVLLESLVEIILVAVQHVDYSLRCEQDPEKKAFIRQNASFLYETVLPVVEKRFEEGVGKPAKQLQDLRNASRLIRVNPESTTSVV
UniProt Q14457: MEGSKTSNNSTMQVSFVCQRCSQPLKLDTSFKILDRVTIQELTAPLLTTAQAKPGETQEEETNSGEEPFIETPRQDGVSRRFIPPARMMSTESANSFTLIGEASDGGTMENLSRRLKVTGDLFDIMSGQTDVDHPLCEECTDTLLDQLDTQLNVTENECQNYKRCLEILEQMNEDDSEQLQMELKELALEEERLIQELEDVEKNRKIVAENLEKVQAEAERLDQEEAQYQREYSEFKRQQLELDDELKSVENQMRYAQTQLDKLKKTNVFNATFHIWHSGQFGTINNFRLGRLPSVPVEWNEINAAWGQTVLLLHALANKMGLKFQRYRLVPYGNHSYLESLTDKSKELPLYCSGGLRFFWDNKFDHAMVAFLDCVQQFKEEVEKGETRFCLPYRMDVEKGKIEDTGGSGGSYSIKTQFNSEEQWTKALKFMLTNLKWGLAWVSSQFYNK
UniProt Q15208: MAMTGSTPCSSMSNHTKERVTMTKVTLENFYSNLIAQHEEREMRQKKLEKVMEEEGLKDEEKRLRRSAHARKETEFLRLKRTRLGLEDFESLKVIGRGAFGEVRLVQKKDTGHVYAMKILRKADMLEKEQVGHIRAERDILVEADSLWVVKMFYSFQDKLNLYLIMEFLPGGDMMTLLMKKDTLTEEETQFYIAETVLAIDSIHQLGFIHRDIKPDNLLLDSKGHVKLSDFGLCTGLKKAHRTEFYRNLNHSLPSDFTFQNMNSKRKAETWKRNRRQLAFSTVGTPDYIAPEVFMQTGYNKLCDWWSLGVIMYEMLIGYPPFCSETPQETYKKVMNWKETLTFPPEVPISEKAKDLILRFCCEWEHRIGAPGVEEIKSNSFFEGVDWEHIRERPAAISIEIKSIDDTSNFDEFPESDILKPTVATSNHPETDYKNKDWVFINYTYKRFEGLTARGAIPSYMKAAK

Assays:
Exo84-HA = Exo84-HA (UniProt Q8IYI6); test: co-IP; HEK293T cells transfected with control or STK38 siRNAs, then with vectors; Exo84-HA immunoprecipitated with anti-HA; basal or EBSS for 90 min; RalB or Beclin1 detected by western blotting
[1] = molecular target: endogenous Beclin1 (human (endogenous in HEK293)) (UniProt Q14457); test: co-IP; endogenous proteins, HEK293 whole-cell extracts; Beclin1 immunoprecipitated with anti-Beclin1 (sc-10087), STK38 detected by western blotting; controls beads only and control IgG
Beclin1-HA = Beclin1-HA (UniProt Q14457); test: co-IP; HEK293T cells co-transfected with Beclin1-HA and myc-STK38 variants; Beclin1-HA immunoprecipitated with anti-HA (12CA5), STK38 detected with anti-myc

Substance	binding (Beclin1-HA)	other results
Beclin1 (co-expressed with Exo84-HA, Figure 5C) (from UniProt Q14457 1-450)	–	binding (Exo84-HA): binds
endogenous STK38 (from UniProt Q15208 1-465) (enzyme)	–	binding [1]: binds
myc-STK38 (83-465), lacking the N-terminal regulatory (NTR) domain (from UniProt Q15208 83-465) (domain or fragment)	binds	–
myc-STK38 D230N (kinase-dead, Mg-binding mutant) (from UniProt Q15208 1-465) (enzyme)	binds	–
myc-STK38 K118R (kinase-dead, ATP-binding mutant) (from UniProt Q15208 1-465) (enzyme)	binds	–
myc-STK38 R41A (MOB1A/B-binding mutant) (from UniProt Q15208 1-465) (enzyme)	binds	–
myc-STK38 Y31A (MOB1A/B-binding mutant) (from UniProt Q15208 1-465) (enzyme)	binds	–
myc-STK38 wild-type (from UniProt Q15208 1-465) (enzyme)	binds	–
